Results taken from publication PMC5116814, “Potent, Reversible, and Specific Chemical Inhibitors of Eukaryotic Ribosome Biogenesis” (Cell, 2016).
No constants are given. Whether binding was seen depends on the method and setting. In cells and extracts the contact can be indirect. Here binding means that the protein was enriched with, or labelled near, the bait; the list need not be complete. Tags and fused reporters may be left off the sequences shown.

Chains of the proteins cited; added tags and fusions are not shown.
UniProt O94248: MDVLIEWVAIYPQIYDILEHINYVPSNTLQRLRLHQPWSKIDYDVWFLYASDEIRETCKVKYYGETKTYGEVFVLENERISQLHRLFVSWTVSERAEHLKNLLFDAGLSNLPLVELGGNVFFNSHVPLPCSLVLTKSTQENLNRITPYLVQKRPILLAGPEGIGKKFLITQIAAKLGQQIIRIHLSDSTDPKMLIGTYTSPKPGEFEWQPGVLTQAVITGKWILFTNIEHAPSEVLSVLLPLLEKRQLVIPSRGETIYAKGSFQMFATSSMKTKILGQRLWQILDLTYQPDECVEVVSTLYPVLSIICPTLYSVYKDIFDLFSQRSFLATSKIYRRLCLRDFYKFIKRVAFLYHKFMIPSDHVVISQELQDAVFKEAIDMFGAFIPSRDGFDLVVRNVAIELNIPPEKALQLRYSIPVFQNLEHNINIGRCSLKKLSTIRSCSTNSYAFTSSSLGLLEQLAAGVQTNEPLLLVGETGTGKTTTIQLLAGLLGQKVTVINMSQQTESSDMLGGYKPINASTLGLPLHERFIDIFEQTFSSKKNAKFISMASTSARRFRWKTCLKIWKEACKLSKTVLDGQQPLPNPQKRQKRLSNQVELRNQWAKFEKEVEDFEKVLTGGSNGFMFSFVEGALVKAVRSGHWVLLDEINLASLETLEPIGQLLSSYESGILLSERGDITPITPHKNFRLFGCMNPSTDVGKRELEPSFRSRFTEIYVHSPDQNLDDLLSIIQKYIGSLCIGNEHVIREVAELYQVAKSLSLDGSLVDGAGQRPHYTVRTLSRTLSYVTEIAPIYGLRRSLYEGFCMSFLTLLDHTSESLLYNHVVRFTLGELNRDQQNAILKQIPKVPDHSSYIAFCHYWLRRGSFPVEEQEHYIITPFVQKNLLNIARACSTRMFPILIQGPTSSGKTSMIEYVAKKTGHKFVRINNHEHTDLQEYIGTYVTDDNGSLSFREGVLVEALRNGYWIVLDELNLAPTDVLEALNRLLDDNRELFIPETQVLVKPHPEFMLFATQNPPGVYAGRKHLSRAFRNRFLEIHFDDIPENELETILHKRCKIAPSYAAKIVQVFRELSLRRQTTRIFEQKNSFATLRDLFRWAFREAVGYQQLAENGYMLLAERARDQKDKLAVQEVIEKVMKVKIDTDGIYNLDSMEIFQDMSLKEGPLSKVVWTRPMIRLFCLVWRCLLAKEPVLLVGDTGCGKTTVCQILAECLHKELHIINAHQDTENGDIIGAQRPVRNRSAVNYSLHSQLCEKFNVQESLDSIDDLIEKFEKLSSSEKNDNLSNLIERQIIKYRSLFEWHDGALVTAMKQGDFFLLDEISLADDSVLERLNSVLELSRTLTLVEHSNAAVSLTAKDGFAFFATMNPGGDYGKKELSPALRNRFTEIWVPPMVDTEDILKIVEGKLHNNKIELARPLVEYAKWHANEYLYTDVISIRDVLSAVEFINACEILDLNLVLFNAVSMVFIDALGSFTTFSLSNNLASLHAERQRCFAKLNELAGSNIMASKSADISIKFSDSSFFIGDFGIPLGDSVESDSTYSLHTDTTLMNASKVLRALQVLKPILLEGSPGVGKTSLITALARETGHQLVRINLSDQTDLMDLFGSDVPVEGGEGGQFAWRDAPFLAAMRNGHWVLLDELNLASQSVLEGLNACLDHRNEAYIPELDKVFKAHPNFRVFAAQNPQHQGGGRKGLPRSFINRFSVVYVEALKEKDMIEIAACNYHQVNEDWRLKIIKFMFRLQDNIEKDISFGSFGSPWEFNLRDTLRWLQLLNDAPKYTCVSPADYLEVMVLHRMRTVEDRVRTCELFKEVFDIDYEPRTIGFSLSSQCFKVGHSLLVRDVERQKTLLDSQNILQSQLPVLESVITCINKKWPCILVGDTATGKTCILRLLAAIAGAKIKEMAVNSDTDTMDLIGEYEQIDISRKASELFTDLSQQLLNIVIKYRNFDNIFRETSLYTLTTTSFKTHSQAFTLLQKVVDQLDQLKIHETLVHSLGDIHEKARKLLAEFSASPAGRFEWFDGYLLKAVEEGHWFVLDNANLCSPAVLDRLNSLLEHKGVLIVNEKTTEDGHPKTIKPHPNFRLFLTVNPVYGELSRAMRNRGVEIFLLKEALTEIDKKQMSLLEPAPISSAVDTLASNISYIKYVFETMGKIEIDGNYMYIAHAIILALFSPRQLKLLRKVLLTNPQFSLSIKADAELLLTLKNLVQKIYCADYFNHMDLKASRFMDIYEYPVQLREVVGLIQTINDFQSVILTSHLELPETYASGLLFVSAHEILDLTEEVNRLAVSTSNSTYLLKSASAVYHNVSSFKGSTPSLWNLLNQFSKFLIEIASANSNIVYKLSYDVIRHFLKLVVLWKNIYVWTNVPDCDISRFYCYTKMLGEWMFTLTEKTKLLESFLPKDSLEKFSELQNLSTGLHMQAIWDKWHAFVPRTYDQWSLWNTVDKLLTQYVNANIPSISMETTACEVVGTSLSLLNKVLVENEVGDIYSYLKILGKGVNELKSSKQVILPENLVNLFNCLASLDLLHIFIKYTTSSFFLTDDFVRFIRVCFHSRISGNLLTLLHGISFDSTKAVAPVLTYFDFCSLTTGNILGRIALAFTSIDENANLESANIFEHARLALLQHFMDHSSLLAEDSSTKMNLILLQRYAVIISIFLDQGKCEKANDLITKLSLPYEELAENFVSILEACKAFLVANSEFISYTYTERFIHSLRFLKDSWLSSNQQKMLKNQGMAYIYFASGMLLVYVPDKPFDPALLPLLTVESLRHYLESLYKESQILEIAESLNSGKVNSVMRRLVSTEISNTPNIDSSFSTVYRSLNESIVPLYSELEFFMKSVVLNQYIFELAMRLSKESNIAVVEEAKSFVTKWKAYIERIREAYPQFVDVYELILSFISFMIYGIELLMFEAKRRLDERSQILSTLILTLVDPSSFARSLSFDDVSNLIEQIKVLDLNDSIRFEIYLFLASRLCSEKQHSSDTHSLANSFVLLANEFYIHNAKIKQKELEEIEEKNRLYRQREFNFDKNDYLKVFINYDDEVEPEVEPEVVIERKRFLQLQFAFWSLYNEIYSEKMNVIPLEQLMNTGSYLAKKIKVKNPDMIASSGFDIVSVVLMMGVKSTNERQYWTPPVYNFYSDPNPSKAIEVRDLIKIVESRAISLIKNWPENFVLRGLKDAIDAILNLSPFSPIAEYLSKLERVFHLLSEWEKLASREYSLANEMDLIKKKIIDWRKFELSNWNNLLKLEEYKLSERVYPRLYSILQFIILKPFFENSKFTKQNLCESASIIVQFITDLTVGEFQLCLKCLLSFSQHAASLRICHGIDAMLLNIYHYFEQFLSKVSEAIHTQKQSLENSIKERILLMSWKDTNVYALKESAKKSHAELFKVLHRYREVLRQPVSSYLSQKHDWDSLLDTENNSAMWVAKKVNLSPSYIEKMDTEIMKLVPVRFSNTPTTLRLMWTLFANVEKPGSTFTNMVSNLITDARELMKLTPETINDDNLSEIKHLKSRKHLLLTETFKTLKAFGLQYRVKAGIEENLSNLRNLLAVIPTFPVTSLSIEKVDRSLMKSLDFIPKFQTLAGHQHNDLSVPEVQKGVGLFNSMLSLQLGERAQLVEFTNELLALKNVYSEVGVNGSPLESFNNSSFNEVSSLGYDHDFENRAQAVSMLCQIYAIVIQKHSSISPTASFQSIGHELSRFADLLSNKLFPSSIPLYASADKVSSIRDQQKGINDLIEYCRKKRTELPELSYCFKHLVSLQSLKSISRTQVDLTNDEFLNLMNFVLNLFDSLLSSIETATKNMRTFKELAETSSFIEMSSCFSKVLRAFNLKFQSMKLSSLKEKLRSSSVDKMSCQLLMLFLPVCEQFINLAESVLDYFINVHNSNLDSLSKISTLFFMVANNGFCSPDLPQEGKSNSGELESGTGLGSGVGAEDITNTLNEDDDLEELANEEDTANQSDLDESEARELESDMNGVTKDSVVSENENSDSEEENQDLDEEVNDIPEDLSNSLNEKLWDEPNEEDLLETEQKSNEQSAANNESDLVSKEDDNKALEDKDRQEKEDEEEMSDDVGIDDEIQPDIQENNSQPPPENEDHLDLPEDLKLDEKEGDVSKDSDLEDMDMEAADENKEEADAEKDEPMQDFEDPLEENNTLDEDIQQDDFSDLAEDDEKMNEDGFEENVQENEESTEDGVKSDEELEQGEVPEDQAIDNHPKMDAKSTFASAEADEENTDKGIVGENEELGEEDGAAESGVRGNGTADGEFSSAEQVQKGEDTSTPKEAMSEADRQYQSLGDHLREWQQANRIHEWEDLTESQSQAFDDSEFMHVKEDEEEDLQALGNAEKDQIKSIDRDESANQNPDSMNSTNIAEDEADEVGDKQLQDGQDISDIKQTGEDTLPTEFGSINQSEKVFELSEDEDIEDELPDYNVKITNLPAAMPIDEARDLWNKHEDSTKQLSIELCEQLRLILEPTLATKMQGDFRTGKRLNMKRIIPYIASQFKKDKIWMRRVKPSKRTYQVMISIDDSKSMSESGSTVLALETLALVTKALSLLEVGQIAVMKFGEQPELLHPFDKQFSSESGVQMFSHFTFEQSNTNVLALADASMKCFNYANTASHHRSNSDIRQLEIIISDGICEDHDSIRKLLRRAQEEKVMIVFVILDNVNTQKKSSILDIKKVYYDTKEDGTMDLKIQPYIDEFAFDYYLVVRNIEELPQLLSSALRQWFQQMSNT

Molecular target: T1, Rix1-5FLAG (S. pombe) (UniProt P87243)
T1 sequence: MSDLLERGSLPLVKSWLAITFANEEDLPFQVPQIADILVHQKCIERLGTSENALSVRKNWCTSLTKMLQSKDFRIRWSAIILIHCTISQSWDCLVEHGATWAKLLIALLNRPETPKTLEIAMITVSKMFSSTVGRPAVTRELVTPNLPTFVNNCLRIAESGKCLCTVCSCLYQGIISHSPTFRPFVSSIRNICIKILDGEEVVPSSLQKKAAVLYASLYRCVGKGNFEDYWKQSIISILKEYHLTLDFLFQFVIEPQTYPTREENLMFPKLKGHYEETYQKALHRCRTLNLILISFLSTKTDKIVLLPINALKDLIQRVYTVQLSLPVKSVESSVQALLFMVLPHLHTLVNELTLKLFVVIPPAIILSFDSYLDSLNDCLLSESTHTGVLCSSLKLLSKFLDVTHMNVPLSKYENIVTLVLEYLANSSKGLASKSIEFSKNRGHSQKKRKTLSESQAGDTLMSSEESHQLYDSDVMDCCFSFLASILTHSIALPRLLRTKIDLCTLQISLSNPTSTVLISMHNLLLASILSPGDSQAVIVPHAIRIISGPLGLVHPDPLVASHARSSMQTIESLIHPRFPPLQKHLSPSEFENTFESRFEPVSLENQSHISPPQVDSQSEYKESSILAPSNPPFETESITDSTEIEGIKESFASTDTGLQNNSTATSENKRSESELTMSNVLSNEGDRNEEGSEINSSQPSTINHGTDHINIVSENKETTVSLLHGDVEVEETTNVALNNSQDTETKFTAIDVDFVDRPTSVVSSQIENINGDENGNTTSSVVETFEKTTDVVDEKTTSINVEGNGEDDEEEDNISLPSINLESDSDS
Experiment: affinity purification with mass spectrometry; Rix1-5FLAG or Nsa1-5FLAG immunoprecipitated with anti-FLAG antibody from S. pombe whole cell extracts (with or without 1 uM Rbin-1, 30 min, 29°C in Figure S7B); SDS-PAGE with Coomassie or ORIOLE staining; bands identified by mass spectrometry

- binding: binds
Substance: Mdn1 (Midasin), S. pombe (from UniProt O94248 1-4717)
